Experimental data from US8258134B2, “Pyridazinone glucokinase activators” (Hoffmann-La Roche Inc., priority 2008, dated 2012).

Molecular target: T1, Recombinant human liver GK1 (GST-GK) (Homo sapiens, UniProt P35557)
T1 construct: made in house; host or cells: E. coli
T1 sequence (P35557 1-466 isoform P35557-2): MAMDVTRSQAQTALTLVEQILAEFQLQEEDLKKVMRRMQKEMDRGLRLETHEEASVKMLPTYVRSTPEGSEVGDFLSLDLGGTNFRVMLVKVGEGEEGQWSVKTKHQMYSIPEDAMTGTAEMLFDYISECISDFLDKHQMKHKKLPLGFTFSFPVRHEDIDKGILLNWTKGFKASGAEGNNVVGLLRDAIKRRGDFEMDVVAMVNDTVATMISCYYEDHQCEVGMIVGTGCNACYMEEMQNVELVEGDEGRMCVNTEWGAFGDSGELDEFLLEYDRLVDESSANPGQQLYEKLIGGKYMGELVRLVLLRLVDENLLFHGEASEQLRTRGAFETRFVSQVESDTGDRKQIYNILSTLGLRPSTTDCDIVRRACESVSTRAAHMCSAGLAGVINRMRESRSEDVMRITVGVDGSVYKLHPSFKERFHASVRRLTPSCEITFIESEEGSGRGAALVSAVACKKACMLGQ
Test: Glucokinase in vitro assay (G6PDH-coupled NADH generation, OD340)
Assay type: biochemical
Settings: 5 mM D-glucose, 30° C., pH 7.1, 10% DMSO
Method: Glucokinase In Vitro Assay Protocol: Glucokinase (GK) was assayed by coupling the production of glucose-6-phosphate to the generation of NADH with glucose-6-phosphate dehydrogenase (G6PDH, 0.75-1 k units/mg; Boehringer Mannheim, Indianapolis, Ind.) from Leuconostoc mesenteroides as the coupling enzyme (Scheme 2):
Recombinant human liver GK1 was expressed in E. coli as a glutathione S-transferase fusion protein (GST-GK) [Liang et al, 1995] and was purified by chromatography over a glutathione-Sepharose 4B affinity column using the procedure provided by the manufacturer (Amersham Pharmacia Biotech, Piscataway, N.J.).
The assay was conducted at 30° C. in a flat bottom 96-well tissue culture plate from Costar (Cambridge, Mass.) with a final incubation volume of 120 μL. […]
After addition of enzyme, the increase in optical density (OD) at 340 nm was monitored spectrophotometrically to determine the rate of change (OD340 per min). The GK activity (OD340/min) in control wells (10% DMSO minus GK activators) was compared with the activity in wells containing test GK activators, and the concentration of activator that produced a 50% increase in the activity of GK, i.e., the SC1.5, was calculated. […]

## COc1cnn(C(CC2CCCC2)C(=O)Nc2ccn(CC(C)(C)O)n2)c(=O)c1 (stereo not shown) [Example 81, 3-Cyclopentyl-N-[1-(2-hydroxy-2-methyl-propyl)-1H-pyrazol-3-yl]-2-(4-methoxy-6-oxo-6H-pyridazin-1-yl)-propionamide]
  SC1.5 average (concentration of activator that produced a 50% increase in the activity of GK): 7.484 µM
